Values are animals surviving of animals treated; these mice carried no tumour. Survivors were counted at the toxicity check, usually on the fifth day, unless a day is given; later deaths do not show. Schedules are NCI's codes, read here as Q, the interval in days (D) or hours (H), X, the number of doses.
Tested on: B6D2F1 mice, nontumored toxicity test, survival
Test: NCI In Vivo Anticancer Drug Screen. Data for tumor model Nontumored Animals (Toxicity Test) in B6D2F1 (BDF1) mice
Details: schedule: Q01DX001 (ip), vehicle: water

Compound: N=c1ccn2c(n1)OC1C(O)C(CO)OC12 (centres undefined)
- survivor count (dose: 400.0 mg/kg/injection): 6 of 6
- survivor count (dose: 800.0 mg/kg/injection): 6 of 6
- survivor count (dose: 1600.0 mg/kg/injection): 6 of 6
- survivor count (dose: 3200.0 mg/kg/injection): 2 of 6
